PubChem BioAssay AID1259254, NCATS – 2017

Test: 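Finding genes that stop cells copying their DNA twice in one cycle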 (primary screen)
System: human HCT116 colorectal cancer cells
Reagent: single siRNA against human genes
Timing: 3 days
Read-out: 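Imaged Hoechst DNA stain sorts each cell into a cycle phase by DNA amount; per plate, G2 fraction set to 0% for non-targeting and 100% for GMNN siRNA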
Direction: G2 robust z-score: higher = more G2 cells, more excess DNA replication
Hit rule: 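An siRNA counts as active if its G2 robust z-score lies at least 5 MADs above the screen median; here such calls match roughly 38% of GMNN control or more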
In all, the deposit lists about 59,000 reagents; this is an unselected part. About 1,550 of all reagents (2.6%) were called active. 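G2 share is only a proxy for re-replication; each gene was hit by three separate siRNAs, and active genes were retested.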 Unmarked entries are inactive. Reagents against one gene are numbered here. Not all columns of the deposit are shown. Not stated in the record: the amount of reagent.

With knock-down of PNPLA8 (GeneID 50640) #1, the screen gave G2 robust z-score -0.294.
Against PNPLA8 (GeneID 50640) #2, the entry reads G2 robust z-score -0.528.
PNPLA8 (GeneID 50640) #3 gave G2 robust z-score -0.379.
Against ACCSL (GeneID 390110) #1, the values are G2 robust z-score -0.967.
Depletion of ACCSL (GeneID 390110) #2 resulted in: G2 robust z-score -0.034.
Against ACCSL (GeneID 390110) #3 the deposit lists G2 robust z-score -0.634.
With knock-down of ATP5PD (GeneID 10476) #1, the record shows G2 robust z-score 1.42.
ATP5PD (GeneID 10476) #2 gave G2 robust z-score 1.7.
With knock-down of ATP5PD (GeneID 10476) #3, the record shows G2 robust z-score -0.758.
Against OR51A4 (GeneID 401666) #1 the deposit lists G2 robust z-score -0.263.
With knock-down of OR51A4 (GeneID 401666) #2, the screen gave G2 robust z-score 5.41 (active).
For OR51A4 (GeneID 401666) #3, the values are G2 robust z-score 0.889.
NPC1L1 (GeneID 29881) #1 gave G2 robust z-score 1.57.
Depletion of NPC1L1 (GeneID 29881) #2 resulted in: G2 robust z-score -0.834.
Against NPC1L1 (GeneID 29881) #3, the entry reads G2 robust z-score -0.257.
For DUOX1 (GeneID 53905) #1 the deposit lists G2 robust z-score 2.39.
For DUOX1 (GeneID 53905) #2, the values are G2 robust z-score -0.0126.
With knock-down of DUOX1 (GeneID 53905) #3, the record shows G2 robust z-score -0.498.
Against CLCC1 (GeneID 23155) #1, the entry reads G2 robust z-score 4.99.
With knock-down of CLCC1 (GeneID 23155) #2, the screen gave G2 robust z-score 0.0961.
For CLCC1 (GeneID 23155) #3, the values are G2 robust z-score -0.702.
For OCLM (retired record) (GeneID 10896) #1 the deposit lists G2 robust z-score -1.28.
For OCLM (retired record) (GeneID 10896) #2, the values are G2 robust z-score -0.0269.
After knock-down of OCLM (retired record) (GeneID 10896) #3, the record shows G2 robust z-score 3.5.

A portion from the list above, as a working copy:
PNPLA8 (GeneID 50640) #3 — G2 robust z-score: -0.379
ACCSL (GeneID 390110) #1 — G2 robust z-score: -0.967
ACCSL (GeneID 390110) #2 — G2 robust z-score: -0.034
